{"source": "paper PMC9953269", "about": "“In Vivo Acute Toxicity Studies of Novel Anti-Melanoma Compounds Downregulators of hnRNPH1/H2” (Biomolecules, 2023)", "tested_on": "various cell types (liver, lung, breast, brain, skin, ovary, primary melanocytes, primary keratinocytes)", "test": "General cytotoxicity against cell lines and primary cells from different tissues", "assay_type": "cell-based", "settings": "TC50 versus melanoma IC50", "data": [{"smiles": "O=C1NC[C@H](Cc2ccccc2)N(C[C@@H]2CCCN2C[C@H](Cc2ccccc2)N2C[C@H](Cc3ccc(O)cc3)N(CCC34CC5CC(CC(C5)C3)C4)C(=O)C2=O)C1=O", "note": "[Compound 2155-18]", "values": [{"measurement": "in vitro therapeutic index (TI)", "result": "~ 10"}]}, {"smiles": "O=C1NC[C@H](Cc2ccccc2)N(C[C@@H]2CCCN2C[C@@H](CC2CCCCC2)N2C[C@H](Cc3ccc(O)cc3)N(CCc3ccccc3)C(=O)C2=O)C1=O", "note": "[Compound 2155-14]", "values": [{"measurement": "in vitro therapeutic index (TI)", "result": "~ 10"}]}]}
